# Results taken from patent US12378320B2, “Methods for treating pancreatitis” (Cold Spring Harbor Laboratory, priority 2018, dated 2025).
# B1: Q9DCC4 (protein, UniProt Q9DCC4 1-274, looked up)
# chain: MAATMSEPRRVGFVGAGRMAEAIARGLIQAGKVEAKQVLASAPTDNNLCHFRALGCQTTHSNHEVLQNCPLVIFATKPQVLPTVLAEVAPIVTTEHIIVSVAAGISLSTMEGLLPPNTRVLRVSPNLPCVVQEGAMVMARGHHAGNDDAELLQNLLEACGQCIEVPESYVDIHTGLSGSGVAFVCTFSEALAEGAIKMGMPSGLAHRIAAQTLLGTAKMLQQEGKHPAQLRTDVLTPAGTTIHGLHALERGGFRAATMSAVEAATCRAKELSKK
# modifications: full-length
# B2: Q9QZE5 (protein, UniProt Q9QZE5 1-874, looked up)
# chain: MLKKFDKKDEESGGGSNPLQHLEKSAVLQEARVFNETPINPRKCAHILTKILYLINQGEHLGTTEATEAFFAMTKLFQSNDPTLRRMCYLTIKEMSCIAEDVIIVTSSLTKDMTGKEDNYRGPAVRALCQITDSTMLQAVERYMKQAIVDKVPSVSSSALVSSLHLLKCSFDVVKRWVNEAQEAASSDNIMVQYHALGLLYHVRKNDRLAVSKMISKFTRHGLKSPFAYCMMIRVASKQLEEEDGSRDSPLFDFIESCLRNKHEMVVYEAASAIVNLPGCSAKELAPAVSVLQLFCSSPKAALRYAAVRTLNKVAMKHPSAVTACNLDLENLVTDSNRSIATLAITTLLKTGSESSIDRLMKQISSFMSEISDEFKVVVVQAISALCQKYPRKHAVLMNFLFTMLREEGGFEYKRAIVDCIISIIEENSESKETGLSHLCEFIEDCEFTVLATRILHLLGQEGPKTNNPSKYIRFIYNRVVLEHEEVRAGAVSALAKFGAQNEEMLPSILVLLKRCVMDDDNEVRDRATFYLNVLEQKQKALNAGYILNGLTVSIPGLEKALQQYTLEPSEKPFDLKSVPLATTPMAEQRPESTATAAVKQPEKVAATRQEIFQEQLAAVPEFQGLGPLFKSSPEPVALTESETEYVIRCTKHTFSDHLVFQFDCTNTLNDQTLENVTVQMEPTEAYEVLSYVPARSLPYNQPGTCYTLVALPTEDPTAVACTFSCVMKFTVKDCDPNTGEIDEEGYEDEYVLEDLEVTVADHIQKVMKVNFEAAWDEVGDEFEKEETFTLSTIKTLEEAVGNIVKFLGMHPCERSDKVPENKNTHTLLLAGVFRGGHDILVRSRLLLLDTVTMQVTARSSEELPVDIILASVG
# modifications: full-length
# B3: Q9JKR6 (protein, UniProt Q9JKR6 1-999, looked up)
# chain: MAATVRRQRPRRLLCWALVAVLLADLLALSDTLAVMSVDLGSESMKVAIVKPGVPMEIVLNKESRRKTPVTVTLKENERFLGDSAAGMAIKNPKATLRYFQHLLGKQADNPHVALYRSRFPEHELIVDPQRQTVRFQISPQLQFSPEEVLGMVLNYSRSLAEDFAEQPIKDAVITVPAFFNQAERRAVLQAARMAGLKVLQLINDNTATALSYGVFRRKDINSTAQNVMFYDMGSGSTVCTIVTYQTVKTKEAGMQPQLQIRGVGFDRTLGGLEMELRLREHLAKLFNEQRKGQKAKDVRENPRAMAKLLREANRLKTVLSANADHMAQIEGLMDDVDFKAKVTRVEFEELCADLFDRVPGPVQQALQSAEMSLDQIEQVILVGGATRVPKVQEVLLKAVGKEELGKNINADEAAAMGAVYQAAALSKAFKVKPFVVRDAVIYPILVEFTREVEEEPGLRSLKHNKRVLFSRMGPYPQRKVITFNRYSHDFNFHINYGDLGFLGPEDLRVFGSQNLTTVKLKGVGESFKKYPDYESKGIKAHFNLDESGVLSLDRVESVFETLVEDSPEEESTLTKLGNTISSLFGGGTSSDAKENGTDAVQEEEESPAEGSKDEPAEQGELKEEAEPPAEETSQPPPSEPKGDAAREGEKPDEKESGDKPEAQKPNEKGQAGPEGAAPAPEEDKKPKPARKQKMVEEIGVELAVLDLPDLPEDELARSVQKLEELTLRDLEKQEREKAANSLEAFIFETQDKLYQPEYQEVSTEEQREEISGKLSATSTWLEDEGFGATTVMLKDKLAELRKLCQGLFFRVEERRKWPERLSALDNLLNHSSIFLKGARLIPEMDQVFTEVEMTTLEKVINDTWAWKNATLAEQAKLPATEKPVLLSKDIEAKMMALDREVQYLLNKAKFTKPRPRPKDKNGTRAEPPLNASAGDQEEKVIPPAGQTEEAKPILEPDKEETGTEPADSEPLELGGPGAGPEQEEQSAGQKRPSKNDEL
# modifications: full-length
# B4: Q9DB16 (protein, UniProt Q9DB16 1-337, looked up)
# chain: MKKMPLFSKSHKNPAEIVKILKDNLAILEKQDKKTDKASEEVSKSLQAMKEILCGTNDKEPPTEAVAQLAQELYSSGLLVTLIADLQLIDFEGKKDVTQIFNNILRRQIGTRCPTVEYISSHPHILFMLLKGYEAPQIALRCGIMLRECIRHEPLAKIILFSNQFRDFFKYVELSTFDIASDAFATFKDLLTRHKVLVADFLEQNYDTIFEDYEKLLQSENYVTKRQSLKLLGELILDRHNFTIMTKYISKPENLKLMMNLLRDKSPNIQFEAFHVFKVFVASPHKTQPIVEILLKNQPKLIEFLSSFQKERTDDEQFADEKNYLIKQIRDLKKAAP
# modifications: full-length
# B5: Q8BVN8 (protein, UniProt Q8BVN8 1-258, looked up)
# chain: MIPPADSLLKYDTPVLVSRNTEKRSPTARPLKVTIQQPGPSSTSPQPPKAKLPSTSCVPDPTKQAEEILNAILPPREWVEDTQLWIQQVSSTPSTRMDVVHLQEQLDLKLQQRQARETGICPVRRELYSQCFDELIREVTINCAERGLLLLRVRDEIHMTIAAYQTLYESSVAFGMRKALQAEQGKSDMERKITELETEKRDLERQVNEQKAKCEATEKRESERRQVEEKKHNEEIQFLKRTNQQLKAQLEGIIAPKK
# modifications: full-length
# B6: P32233 (protein, UniProt P32233 1-367, looked up)
# chain: MSGTLAKIAEIEAEMARTQKNKATAHHLGLLKARLAKLRRELITPKGGGGGGPGEGFDVAKTGDARIGFVGFPSVGKSTLLSNLAGVYSEVAAYEFTTLTTVPGVIRYKGAKIQLLDLPGIIEGAKDGKGRGRQVIAVARTCNLILIVLDVLKPLGHKKIIENELEGFGIRLNSKPPNIGFKKKDKGGINLTATCPQSELDAETVKSILAEYKIHNADVTLRSDATADDLIDVVEGNRVYIPCIYVLNKIDQISIEELDIIYKVPHCVPISAHHRWNFDDLLEKIWDYLKLVRIYTKPKGQLPDYTSPVVLPYSRTTVEDFCMKIHKNLIKEFKYALVWGLSVKHNPQKVGKDHTLEDEDVIQIVKK
# modifications: full-length
# B7: Q9JJN6 (protein, UniProt Q9JJN6 1-81, looked up)
# chain: MNREGAPGKSPEEMYIQQKVRVLLMLRKMGSNLTASEEEFLRTYAGVVSSQLSQLPQHSIDQGAEDVVMAFSRSETEDRRQ
# modifications: full-length
# B8: P17751 (protein, UniProt P17751 1-249, looked up)
# chain: MAPTRKFFVGGNWKMNGRKKCLGELICTLNAANVPAGTEVVCAPPTAYIDFARQKLDPKIAVAAQNCYKVTNGAFTGEISPGMIKDLGATWVVLGHSERRHVFGESDELIGQKVSHALAEGLGVIACIGEKLDEREAGITEKVVFEQTKVIADNVKDWSKVVLAYEPVWAIGTGKTATPQQAQEVHEKLRGWLKSNVNDGVAQSTRIIYGGSVTGATCKELASQPDVDGFLVGGASLKPEFVDIINAKQ
# modifications: full-length
# System: CA19-9 modified proteins
# Test: CA19-9 IP/MS (iTRAQ) of organoid conditioned media after Dox treatment
# Parameters: species or system mouse
# Conditions: A217 organoid conditioned media, 0H, 5B1
row,Molecule,17 0H 5B1 (CA19-9 IP/MS relative abundance)
1,B1,2.17
2,B2,1.108
3,B3,2.282
4,B4,1.254
5,B5,4.731
6,B6,1.123
7,B7,2.975
8,B8,1.87

# Same assay, conditions: A217 organoid conditioned media, 0H, NS19-9; every printed value in this column is 1
row,Molecule,17 0H NS19 (CA19-9 IP/MS relative abundance)
1,B1,1
2,B2,1
3,B3,1
4,B4,1
5,B5,1
6,B6,1 1
7,B7,1
8,B8,1

# Same assay, conditions: A217 organoid conditioned media, 8 hours, 5B1
row,Molecule,17 8H 5B1 (CA19-9 IP/MS relative abundance)
1,B1,1.789
2,B2,1.278
3,B3,2.379
4,B4,1.843
5,B5,4.234
6,B6,0.577
7,B7,3.304
8,B8,1.45

# Same assay, conditions: A217 organoid conditioned media, 8 hours, NS19-9
row,Molecule,17 8H NS19 (CA19-9 IP/MS relative abundance)
1,B1,0.614
2,B2,0.139
3,B3,0.486
4,B4,1.149
5,B5,0.656
6,B6,0.465
7,B7,1.192
8,B8,0.734

# Same assay, conditions: A220 organoid conditioned media, 0H, 5B1
row,Molecule,20 0H 5B1 (CA19-9 IP/MS relative abundance)
1,B1,2.244
2,B2,1.15
3,B3,3.009
4,B4,1.682
5,B5,4.175
6,B6,0.459
7,B7,1.111
8,B8,1.528

# Same assay, conditions: A220 organoid conditioned media, 0H, NS19-9
row,Molecule,20 0H NS19 (CA19-9 IP/MS relative abundance)
1,B1,0.831
2,B2,0.14
3,B3,0.728
4,B4,0.826
5,B5,1.352
6,B6,0.122
7,B7,1.111
8,B8,0.73

# Same assay, conditions: A220 organoid conditioned media, 8 hours, 5B1
row,Molecule,20 8H 5B1 (CA19-9 IP/MS relative abundance)
1,B1,3.024
2,B2,1.413
3,B3,2.585
4,B4,1.847
5,B5,4.589
6,B6,0.738
7,B7,0.93
8,B8,1.534

# Same assay, conditions: A220 organoid conditioned media, 8 hours, NS19-9
row,Molecule,20 8H NS19 (CA19-9 IP/MS relative abundance)
1,B1,0.195
2,B2,0.121
3,B3,0.521
4,B4,4.987
5,B5,1.133
6,B6,0.269
7,B7,0.337
8,B8,0.882
